Results deposited as PubChem BioAssay AID686943 (Drosophila RNAi Screening Center, 2013).
Aim: 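Search across the genome for regulators of signalling from receptor tyrosine kinase to ERK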 (primary screen). Cells: Drosophila S2R+ haemocyte-like cells expressing YFP-tagged ERK (Rolled). Reagent: long dsRNA against Drosophila genes. Conditions: insulin stimulation versus unstimulated cells; dose and duration not given. Measured: 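Antibody staining for doubly phosphorylated ERK divided by ERK-YFP signal, as plate z-scores, in insulin-treated and untreated cells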. Scale: replicate 1, z-score of dpERK with insulin: higher = more active ERK per ERK-YFP after insulin.
The screen tested about 23,000 reagents; shown is an unselected part of those with a known target gene and a result. 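Extra replicates exist only for a retested subset of genes; insulin dose and duration not given; both raised and lowered dpERK matter.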 A plus sign joins genes that one reagent is predicted to hit. Not all columns of the deposit are shown. Not stated in the record: the amount of reagent, the time to read-out.

What did the screen give for RfC4 (Replication factor C subunit 4) [DRSC08691]?
replicate 1, z-score of dpERK with insulin: -0.52

With Hn (Henna) [DRSC11184], what does the deposit list?
replicate 1, z-score of dpERK with insulin: 0.02

Which result is listed for ru (roughoid) [DRSC08258]?
replicate 1, z-score of dpERK with insulin: 0.15

How did the screen score CG12490 [DRSC04123]?
replicate 1, z-score of dpERK with insulin: 0.28

For CG6724 [DRSC02983], what does the deposit list?
replicate 1, z-score of dpERK with insulin: 0.2

How did the screen score CG14416 [DRSC18639]?
replicate 1, z-score of dpERK with insulin: 0.06

With CG13813 [DRSC10068], how do the results read?
replicate 1, z-score of dpERK with insulin: -0.64

With CG14340 [DRSC00370], what does the deposit list?
replicate 1, z-score of dpERK with insulin: -0.31

Which result is listed for CG4017 [DRSC02733]?
replicate 1, z-score of dpERK with insulin: -0.19

With CG10859 [DRSC02110], what does the deposit list?
replicate 1, z-score of dpERK with insulin: 0.15

With lncRNA:CR42735 (retired record) [DRSC00921], what does the deposit list?
replicate 1, z-score of dpERK with insulin: -0.24

What is on record for CG2147 [DRSC18211]?
replicate 1, z-score of dpERK with insulin: -0.43

What did the screen give for CG4069 [DRSC10396]?
replicate 1, z-score of dpERK with insulin: -0.16

What is on record for asRNA:CR43477 + CG12256 [DRSC14484]?
replicate 1, z-score of dpERK with insulin: 0.59

For mRpL20 (mitochondrial ribosomal protein L20) [DRSC09828], what does the deposit list?
replicate 1, z-score of dpERK with insulin: -0.37

With AOX3 (Aldehyde oxidase 3) [DRSC15955], what was measured?
replicate 1, z-score of dpERK with insulin: 0.3

Entries above whose gene name begins with C or c (9):
CG12490 [DRSC04123]: replicate 1, z-score of dpERK with insulin = 0.28
CG6724 [DRSC02983]: replicate 1, z-score of dpERK with insulin = 0.2
CG14416 [DRSC18639]: replicate 1, z-score of dpERK with insulin = 0.06
CG13813 [DRSC10068]: replicate 1, z-score of dpERK with insulin = -0.64
CG14340 [DRSC00370]: replicate 1, z-score of dpERK with insulin = -0.31
CG4017 [DRSC02733]: replicate 1, z-score of dpERK with insulin = -0.19
CG10859 [DRSC02110]: replicate 1, z-score of dpERK with insulin = 0.15
CG2147 [DRSC18211]: replicate 1, z-score of dpERK with insulin = -0.43
CG4069 [DRSC10396]: replicate 1, z-score of dpERK with insulin = -0.16

Next entries follow:
Which result is listed for Ciao1 [DRSC06170]?
replicate 1, z-score of dpERK with insulin: 0.49

With CG33223 [DRSC17572], what does the deposit list?
replicate 1, z-score of dpERK with insulin: -0.65

What is on record for wal (walrus) [DRSC07717]?
replicate 1, z-score of dpERK with insulin: -0.37

Which result is listed for CG10041 [DRSC14179]?
replicate 1, z-score of dpERK with insulin: -0.21

For Ype (Yippee) [DRSC20301], what was measured?
replicate 1, z-score of dpERK with insulin: -0.61

How did the screen score CG7953 [DRSC01902]?
replicate 1, z-score of dpERK with insulin: 0.15

What did the screen give for CG12115 [DRSC17811]?
replicate 1, z-score of dpERK with insulin: 1.35

With otk2 (off-track2) [DRSC07303], how do the results read?
replicate 1, z-score of dpERK with insulin: -0.65

With hkb (huckebein) [DRSC12377], what was measured?
replicate 1, z-score of dpERK with insulin: 1.1

Which result is listed for CG8206 [DRSC20093]?
replicate 1, z-score of dpERK with insulin: -0.98

Which result is listed for dikar [DRSC09699]?
replicate 1, z-score of dpERK with insulin: -0.64

With dikar [DRSC22261], what does the deposit list?
replicate 1, z-score of dpERK with insulin: -3.28

What is on record for cpa (capping protein alpha) [DRSC04080]?
replicate 1, z-score of dpERK with insulin: 0.13

How did the screen score CG9356 [DRSC16476]?
replicate 1, z-score of dpERK with insulin: -0.43

Which result is listed for lectin-33A [DRSC02529]?
replicate 1, z-score of dpERK with insulin: 0.3

For lectin-33A [DRSC22116], what does the deposit list?
replicate 1, z-score of dpERK with insulin: -1.46

How did the screen score Aps (Aps pyrophosphatase) [DRSC10629]?
replicate 1, z-score of dpERK with insulin: 1.21

For betaCOP (Coat Protein (coatomer) beta) [DRSC20312], how do the results read?
replicate 1, z-score of dpERK with insulin: 2.23

What did the screen give for CG10576 [DRSC09745]?
replicate 1, z-score of dpERK with insulin: -0.16

What is on record for pain (painless) [DRSC04273]?
replicate 1, z-score of dpERK with insulin: -0.46

Which result is listed for CG3847 [DRSC17444]?
replicate 1, z-score of dpERK with insulin: -0.95

How did the screen score CG3847 [DRSC18327]?
replicate 1, z-score of dpERK with insulin: 0.27

With Poxn (Pox neuro) [DRSC05589], how do the results read?
replicate 1, z-score of dpERK with insulin: 1.05

Which result is listed for Poxn (Pox neuro) [DRSC07512]?
replicate 1, z-score of dpERK with insulin: 0.75
